Test results taken from patent US8288559B2, “Luminogenic compounds and methods to detect cytochrome P450 3A enzymes” (Promega Corporation, priority 2008, dated 2012).

Sequences of proteins named here, by UniProt entry; tags and fusion partners are left off.
UniProt P08684, whole entry: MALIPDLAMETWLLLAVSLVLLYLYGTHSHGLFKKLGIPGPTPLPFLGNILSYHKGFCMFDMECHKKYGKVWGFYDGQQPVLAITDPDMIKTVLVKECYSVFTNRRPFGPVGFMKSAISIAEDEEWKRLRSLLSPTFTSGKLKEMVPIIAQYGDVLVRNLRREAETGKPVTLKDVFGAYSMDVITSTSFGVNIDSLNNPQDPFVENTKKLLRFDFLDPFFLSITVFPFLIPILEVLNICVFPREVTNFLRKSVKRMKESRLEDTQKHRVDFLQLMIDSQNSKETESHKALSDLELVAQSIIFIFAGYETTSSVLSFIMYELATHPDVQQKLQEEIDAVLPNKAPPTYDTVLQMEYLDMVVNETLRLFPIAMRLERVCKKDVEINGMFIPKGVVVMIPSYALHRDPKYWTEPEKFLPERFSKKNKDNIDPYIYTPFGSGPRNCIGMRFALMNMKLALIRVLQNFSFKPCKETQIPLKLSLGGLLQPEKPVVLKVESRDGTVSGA

Assays:
CYP3A4 [1] = target: T1, CYP3A4 (Homo sapiens, UniProt P08684); conditions: cited from earlier work
CYP3A4 [2] = target: T1, CYP3A4
Procedure: In FIGS. 3-6, CYP3A4 enzyme was co-expressed with cytochrome b5 and cytochrome P450 reductase in membrane fractions (Supersomes™). […] The reactions were initiated by addition of the NADPH regenerating system and incubated for 10 minutes at 37° C. After incubation, an equal volume (50 μl) of LDR was added and luminescence read 20 minutes later at room temperature on a Veritas™ luminometer. […] IC50 is the concentration of inhibitor that causes 50% inhibition of the reaction. Curve fits and IC50 calculations were performed with the program GraphPad Prism™.

COC(=O)C1=C(C)NC(C)=C(C(=O)OC)C1c1ccccc1[N+](=O)[O-] [nifedipine]
effect on CYP3A4 assay using luciferin-BE (CYP3A4 [1]): stimulated
effect on CYP3A4 assay using luciferin-PFBE (CYP3A4 [1]): stimulated
effect on CYP3A4 assay using luciferin-PPXE (CYP3A4 [1]): inhibited
effect on the CYP3A4/3391 reaction (CYP3A4 [2]): inhibited
